## Percent effect of library compounds

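Phenotypic screen: M. tuberculosis growth, glucose 7H9 medium, 3 days; the read-out is not stated. Tested at 500 µM. Higher reads as more growth inhibition (inferred: compounds with an IC50 in retests scored well above the rest). Size under these conditions: about 18,000 compounds, about 1,400 of them at 50% or above in at least one test.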

Results are given as percent effect.
The record does not define 0% and 100%; most values in the screen are far below 50% and negative numbers occur (in some assays of this library far below -100).
This is an unselected part of the compounds tested.

With CCOC(=O)c1ccc(CN2CCOCC2)cn1 the screen gave 44.98%.
With O=C(C1CCC1)N1CCn2c1nc1ccccc12 the screen gave 32.12%.
With O=C1CCCN1CCOc1cccc(C(F)(F)F)n1 the screen gave 27.38%.
With CCNc1nnc(SC(C)C)s1 the screen gave 84.03%.
With CC(=O)c1cc(C(=O)NC2CCC(=O)NC2)ccc1C (stereo not drawn) the screen gave -2.621%.
With CC(CN1CCOCC1)NS(=O)(=O)c1ncn(C)c1Cl (stereo not drawn) the screen gave -1.295%.
With CCC1(CNC(=O)NCc2nnnn2C2CC2)CCC1 the screen gave 13.48%.
With NCCN1CCN(c2cccc(C(F)(F)F)c2)CC1 the screen gave 80.16%.
With Cc1cnc(C(=O)Nc2ccn(C)n2)cn1 the screen gave -1.96%.
With CS(=N)(=O)c1ccccc1Br (stereo not drawn) the screen gave 10.7%.
With Cc1cnc(C)c(N2CCC3(CC2)CNC(=O)C3)n1 the screen gave 14.66%.
With CCCN1CCN(C(=O)c2c(C)nn(C)c2C)CC1 the screen gave 2.053%.
With CC(NC(=O)C1(N)Cc2ccccc2C1)C1CC1 (stereo not drawn) the screen gave -11.13%.
With CNC(=O)c1ccc(S(=O)(=O)NC2CC2)o1 the screen gave 22.96%.
With Cc1ccc(C2CSCCN2)o1 (stereo not drawn) the screen gave -1.898%.
With CCc1ccc(CN2C[C@@H]3CCC[C@H](C2)C(=O)N3)nc1 the screen gave 3.999%.
With CS(=O)(=O)c1ccc(NC(=O)N2CCC[C@@H]2CO)cc1 the screen gave 20.12%.
With N#CC1CCN(Cc2ccccc2)C1 (stereo not drawn) the screen gave 19.28%.
With CCNC(=O)COc1cccc(C(C)N)c1 (stereo not drawn) the screen gave 2.874%.
With CC(C)(C)OC(=O)N1CCC(n2cc(N)cn2)CC1 the screen gave 56.11%.
With COc1cc(C#N)cnc1C the screen gave -2.438%.
With CCCNC(=O)c1n[nH]c2c1CC(C)CC2 (stereo not drawn) the screen gave -2.514%.
With NS(=O)(=O)c1ccc(OCC(F)(F)F)nc1 the screen gave 4.259%.
With CC(=O)C1CCN(C)CC1 the screen gave -6.613%.
With CN1CCC(NC(=O)CSCc2cccs2)CC1 the screen gave 6.926%.
With CCC(N)(CC)CNS(=O)(=O)c1cccnc1 the screen gave -1.498%.
With O=C(CCS(=O)(=O)c1ccccn1)NC1CCCCC1 the screen gave 13.7%.
With O=C(c1ccc(N2CCCCCC2)nc1)N1CC(O)C1 the screen gave 32.05%.
With CC(C)(C)C(=O)Nc1ccc(N2CCNC(=O)C2)cc1 the screen gave -101.1%.
With NCc1cccc(C(=O)NC2CC2)c1 the screen gave 7.895%.
With O=C(NC1CC1)c1ccc(CNC2CC2)cc1 the screen gave -0.9977%.
With CCNC(=O)C1(N)CCCC1 the screen gave -7.943%.
With CCn1ncnc1C(NC(=O)c1cncs1)C1CC1 (stereo not drawn) the screen gave 14.78%.
With Cc1nnc(SCCCNC(=O)c2nn(C)cc2Cl)s1 the screen gave 41.83%.
With CCC(NC(=O)Cc1ccccn1)c1nc(C)c[nH]1 (stereo not drawn) the screen gave 6.322%.
With Cc1nc2c(o1)CCCC2O (stereo not drawn) the screen gave 1.384%.
With Cc1nc2ccccc2nc1SCC(=O)NCCCO the screen gave 13.37%.
With Cc1nc(C)c(C(=O)NCCC2CCCN2C)o1 (stereo not drawn) the screen gave -15.12%.
With COCCN(CCO)C(=O)Nc1ccc(OC)cc1 the screen gave 11.24%.
With CC(C)CC(=O)Nc1cccc(C(=O)N(C)C)c1 the screen gave -10.34%.
With CN(Cc1ccc(Cl)cc1)C(=O)C1CCNC1 (stereo not drawn) the screen gave 22.85%.
With CCS(=O)(=O)NCC(C)(C)CNS(=O)(=O)CC the screen gave 8.342%.
With OC1CCNC12CCCC2 (stereo not drawn) the screen gave -14.56%.
With O=C(COCC(F)(F)F)NC1CCc2nccn2C1 (stereo not drawn) the screen gave -19.29%.
With COc1c[nH]c(C(=O)NCCSC(F)(F)F)cc1=O the screen gave 2.854%.
With CCNC(=O)c1cccc(NC(=O)N2CCOCC2)c1 the screen gave -0.1088%.
With CCNC(=O)COc1cccc2ccc(C)nc12 the screen gave 7.356%.
With CC(C)CC(=O)NC1CCN(C(C)C)CC1 the screen gave 8.825%.
With Cn1cc(CNCc2ccc3c(c2)OCCO3)cn1 the screen gave 14.99%.
With NC(=O)Nc1cccc(CNS(=O)(=O)c2cccs2)c1 the screen gave 20.62%.
With Cc1ccc(CNCCNCCO)s1 the screen gave -0.8962%.
With Cn1cnc(S(=O)(=O)NCC(N)c2ccccc2)c1Cl (stereo not drawn) the screen gave 35.88%.

Data taken from ChEMBL document CHEMBL3988442, “University of Dundee, Small-Polar-MMV Screening Library” (2021).